Screening data, single-dose tests

Chains of the proteins cited; added tags and fusions are not shown. Residues count along the entry.
UniProt P9WFT3, whole entry: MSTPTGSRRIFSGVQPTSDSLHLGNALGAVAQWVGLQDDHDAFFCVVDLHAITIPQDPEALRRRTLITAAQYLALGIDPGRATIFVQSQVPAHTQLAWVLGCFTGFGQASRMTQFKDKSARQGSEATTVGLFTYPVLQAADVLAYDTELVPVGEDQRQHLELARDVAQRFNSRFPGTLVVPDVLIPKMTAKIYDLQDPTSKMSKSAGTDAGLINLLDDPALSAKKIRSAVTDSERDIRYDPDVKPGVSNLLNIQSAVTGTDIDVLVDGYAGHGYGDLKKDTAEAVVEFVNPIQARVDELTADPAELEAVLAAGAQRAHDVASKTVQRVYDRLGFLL
UniProt Q8IDJ8, 1-583: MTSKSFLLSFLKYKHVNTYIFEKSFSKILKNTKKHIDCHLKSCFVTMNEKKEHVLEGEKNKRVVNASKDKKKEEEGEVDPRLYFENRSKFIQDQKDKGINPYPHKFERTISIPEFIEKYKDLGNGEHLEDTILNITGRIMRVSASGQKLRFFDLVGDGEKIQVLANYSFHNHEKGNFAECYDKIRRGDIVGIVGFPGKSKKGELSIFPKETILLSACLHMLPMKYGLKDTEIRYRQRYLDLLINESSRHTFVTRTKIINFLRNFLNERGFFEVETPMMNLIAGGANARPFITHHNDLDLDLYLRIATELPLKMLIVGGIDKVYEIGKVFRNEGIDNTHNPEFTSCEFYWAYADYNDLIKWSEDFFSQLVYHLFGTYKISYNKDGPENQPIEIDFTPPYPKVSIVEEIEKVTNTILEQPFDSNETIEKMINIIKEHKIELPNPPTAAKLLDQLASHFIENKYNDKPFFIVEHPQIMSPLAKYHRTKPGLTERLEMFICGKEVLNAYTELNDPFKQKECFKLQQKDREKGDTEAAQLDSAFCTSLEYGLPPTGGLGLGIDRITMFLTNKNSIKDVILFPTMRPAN
UniProt P9WNZ1, whole entry: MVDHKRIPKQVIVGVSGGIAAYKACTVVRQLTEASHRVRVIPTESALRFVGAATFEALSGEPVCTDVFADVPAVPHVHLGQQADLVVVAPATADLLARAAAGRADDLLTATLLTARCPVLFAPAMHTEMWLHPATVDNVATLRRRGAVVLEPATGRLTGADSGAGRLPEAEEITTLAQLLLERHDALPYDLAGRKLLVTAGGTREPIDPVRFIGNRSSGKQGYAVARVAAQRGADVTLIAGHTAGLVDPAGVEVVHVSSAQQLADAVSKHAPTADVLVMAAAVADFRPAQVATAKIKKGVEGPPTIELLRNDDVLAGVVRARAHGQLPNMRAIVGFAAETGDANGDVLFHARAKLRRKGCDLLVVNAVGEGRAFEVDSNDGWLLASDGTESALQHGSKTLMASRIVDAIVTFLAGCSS
UniProt P9WPC5, whole entry: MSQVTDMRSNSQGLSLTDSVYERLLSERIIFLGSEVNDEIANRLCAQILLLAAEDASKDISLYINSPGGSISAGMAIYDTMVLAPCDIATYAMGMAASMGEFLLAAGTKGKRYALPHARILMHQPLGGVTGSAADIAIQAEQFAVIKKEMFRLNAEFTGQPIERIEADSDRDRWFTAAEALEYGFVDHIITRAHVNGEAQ
UniProt P9WPC3, whole entry partner: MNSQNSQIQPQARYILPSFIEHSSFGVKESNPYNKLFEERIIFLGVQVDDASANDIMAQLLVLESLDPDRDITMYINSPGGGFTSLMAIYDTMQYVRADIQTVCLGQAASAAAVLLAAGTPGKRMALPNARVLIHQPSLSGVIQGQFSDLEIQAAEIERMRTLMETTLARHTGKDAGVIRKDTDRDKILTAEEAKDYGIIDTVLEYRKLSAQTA
UniProt Q4DA54, 1-478: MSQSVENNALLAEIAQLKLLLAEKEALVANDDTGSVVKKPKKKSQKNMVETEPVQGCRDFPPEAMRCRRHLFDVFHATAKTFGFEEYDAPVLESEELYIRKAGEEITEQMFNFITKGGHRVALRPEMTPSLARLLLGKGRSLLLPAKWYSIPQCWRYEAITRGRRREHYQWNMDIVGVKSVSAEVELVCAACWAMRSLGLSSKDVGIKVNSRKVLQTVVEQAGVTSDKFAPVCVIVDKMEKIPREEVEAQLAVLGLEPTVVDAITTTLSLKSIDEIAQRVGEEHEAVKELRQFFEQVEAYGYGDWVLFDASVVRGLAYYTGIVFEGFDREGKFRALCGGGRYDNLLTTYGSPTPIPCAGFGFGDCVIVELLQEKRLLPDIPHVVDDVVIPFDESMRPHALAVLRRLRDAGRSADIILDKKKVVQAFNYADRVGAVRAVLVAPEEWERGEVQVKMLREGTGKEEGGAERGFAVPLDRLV

Source: ChEMBL document CHEMBL3988442, “University of Dundee, Small-Polar-MMV Screening Library” (2021).

Values are the deposited “Percent Effect”, in %.
The record does not define 0% and 100%; most values in the screen are far below 50% and negative numbers occur (in some assays of this library far below -100).
This is an unselected part of the compounds tested.

MtTrpRS: 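Tryptophan-tRNA ligase, Mycobacterium tuberculosis (UniProt P9WFT3). Enzyme assay of tryptophanyl-tRNA synthetase; the read-out is not stated. Concentration: 10 µM. Direction is not recorded; retested compounds ran higher, which suggests that high means inhibition. About 65,000 compounds were tested under these conditions; 0.098% (about 64) showed 50% or more at least once.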
PfKRS1: 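Lysine-tRNA ligase, Plasmodium falciparum 3D7 (UniProt Q8IDJ8). Enzyme assay of the cytosolic lysyl-tRNA synthetase in 384-well plates, read by luminescence. Compounds at 30 µM. Direction is inferred from only a few compounds that gave an IC50; most scored high, so higher reads as stronger inhibition. About 69,000 compounds were tested under these conditions; 0.071% (about 49) showed 50% or more at least once.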
CoaBC: 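Enzyme assay of CoaBC with a phosphate dye (Biomol Green) read at 650 nm. Target: Coenzyme A biosynthesis protein CoaBC, Mycobacterium tuberculosis (UniProt P9WNZ1). Compounds at 30 µM. Direction is inferred from only a few compounds that gave an IC50; most scored high, so higher reads as stronger inhibition. Most strong results did not repeat in a second test. About 67,000 compounds were tested under these conditions; 0.06% (about 40) showed 50% or more at least once.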
ClpP1P2: 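ClpP1P2, Mycobacterium tuberculosis (UniProt P9WPC5 and UniProt P9WPC3). Protease assay of ClpP1P2, read by the AMC dye that it sets free. Concentration: 50 µM. Higher reads as stronger inhibition, judged from the few compounds that gave an IC50. Most other retested compounds had strongly negative values. Size under these conditions: about 69,000 compounds, about 10 of them at 50% or above in at least one test.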
TcHisRS: 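Histidine-tRNA ligase, Trypanosoma cruzi CL Brener (UniProt Q4DA54). Enzyme assay of histidyl-tRNA synthetase; the read-out is not stated. Concentration: 30 µM. Higher reads as stronger inhibition (inferred: compounds with an IC50 in retests scored well above the rest). Size under these conditions: about 69,000 compounds, about 31 of them at 50% or above in at least one test.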

- COC(=O)c1ccc(CNC(C)c2ccc(S(C)(=O)=O)cc2)cc1 (stereo unspecified) : MtTrpRS: -7.927%; PfKRS1: 6.311%; CoaBC: 4.781%; ClpP1P2: -4.523%; TcHisRS: -1.053%
- CCCNC(=O)CN1CCCC1c1nc(Cc2ccc(F)cc2)no1 (stereo unspecified) : MtTrpRS: -5.53%; PfKRS1: 4.216%; CoaBC: 1.266%; ClpP1P2: 0.2016%; TcHisRS: 4.433%
- Cc1c[nH]nc1C1CCCN(C(=O)c2c(C)noc2C)C1 (stereo unspecified) : PfKRS1: 5.544%; CoaBC: -0.2427%; ClpP1P2: -15.99%; TcHisRS: 7.692%
- CC(=O)N1CC(=O)N(c2ccccc2)CC12CCN(Cc1nccs1)C2 (stereo unspecified) : MtTrpRS: 3.673%; PfKRS1: 2.017%; CoaBC: 1.396%; ClpP1P2: 7.959%; TcHisRS: 5.946%
- Cc1ccc(NC2CCN(C(=O)c3cccc(F)c3F)CC2)nn1 : MtTrpRS: -3.021%; PfKRS1: 1.863%; CoaBC: -3.394%; ClpP1P2: -2.831%; TcHisRS: 2.632%
- CCN1CCN(c2ccc(NC(C)c3nc(C(C)C)no3)c(C)c2)CC1 (stereo unspecified) : MtTrpRS: -0.4428%; PfKRS1: 0.2687%; CoaBC: -0.7264%; ClpP1P2: -5.052%; TcHisRS: 19%
- CCCc1noc(CN2CCC(N(C)Cc3nnc(C4CC4)o3)C2)n1 (stereo unspecified) : MtTrpRS: -2.215%; PfKRS1: 0.4823%; CoaBC: -7.507%; ClpP1P2: 2.777%; TcHisRS: 3.704%
- CN(C(=O)c1ccncc1F)c1ccccc1S(C)(=O)=O : MtTrpRS: -1.257%; PfKRS1: 9.219%; CoaBC: 0.4132%; ClpP1P2: -3.774%; TcHisRS: 0.5435%
- O=C(Cn1cc(C2CC2)nn1)N(Cc1ccco1)Cc1cccs1 : MtTrpRS: 0.9497%; PfKRS1: 2.088%; CoaBC: -1.946%; ClpP1P2: -7.609%; TcHisRS: 8.333%
- CC(c1ccon1)N(C)S(=O)(=O)NCc1ccccc1 (stereo unspecified) : MtTrpRS: 3.785%; PfKRS1: 0.06656%; CoaBC: 2.913%; ClpP1P2: 0.8492%; TcHisRS: 5.025%
- CC(C)(C)c1ncc(S(C)(=O)=O)c(C2CCCNC2)n1 (stereo unspecified) : MtTrpRS: 2.905%; PfKRS1: 12.61%; CoaBC: 2.03%; ClpP1P2: -9.48%; TcHisRS: -1.345%
- CC(C)S(=O)(=O)N1C[C@@H](c2ccccc2)[C@H]2[C@H]1CCCCCN2C : MtTrpRS: 1.327%; PfKRS1: 2.441%; CoaBC: -3.497%; ClpP1P2: -17.33%; TcHisRS: 2.632%
- O=C(CN1CCOC(c2ccc(Cl)c(Cl)c2)C1)NCc1ccco1 (stereo unspecified) : MtTrpRS: -1.348%; PfKRS1: 0.4165%; CoaBC: 1.845%; ClpP1P2: 7.657%; TcHisRS: 11.49%
- CCCN1CCN(Cc2cc3cc(OCC)ccc3[nH]c2=O)CC1 : MtTrpRS: 2.518%; PfKRS1: 9.406%; CoaBC: 5.33%; ClpP1P2: -17.95%; TcHisRS: 3.139%
- COC(=O)c1ccc(C(=O)N2CCC(c3nnc(C)s3)CC2)cc1 : MtTrpRS: 3.083%; PfKRS1: 4.801%; CoaBC: 8.193%; ClpP1P2: 2.251%; TcHisRS: 6.736%

Repeated from the top, 2 entries:

* COC(=O)c1ccc(CNC(C)c2ccc(S(C)(=O)=O)cc2)cc1 (stereo unspecified) : MtTrpRS: -7.927%; PfKRS1: 6.311%; CoaBC: 4.781%; ClpP1P2: -4.523%; TcHisRS: -1.053%
* CCCNC(=O)CN1CCCC1c1nc(Cc2ccc(F)cc2)no1 (stereo unspecified) : MtTrpRS: -5.53%; PfKRS1: 4.216%; CoaBC: 1.266%; ClpP1P2: 0.2016%; TcHisRS: 4.433%